These are yes or no findings as the source states them, for the method shown. In cells and extracts the contact can be indirect. Some binding calls cover weakened binding; strength is not graded here. For some of these results: Tags and fused reporters may be left off the sequences shown.

Amino acid sequences for entries named in this document (tags omitted).
UniProt Q8RWR1: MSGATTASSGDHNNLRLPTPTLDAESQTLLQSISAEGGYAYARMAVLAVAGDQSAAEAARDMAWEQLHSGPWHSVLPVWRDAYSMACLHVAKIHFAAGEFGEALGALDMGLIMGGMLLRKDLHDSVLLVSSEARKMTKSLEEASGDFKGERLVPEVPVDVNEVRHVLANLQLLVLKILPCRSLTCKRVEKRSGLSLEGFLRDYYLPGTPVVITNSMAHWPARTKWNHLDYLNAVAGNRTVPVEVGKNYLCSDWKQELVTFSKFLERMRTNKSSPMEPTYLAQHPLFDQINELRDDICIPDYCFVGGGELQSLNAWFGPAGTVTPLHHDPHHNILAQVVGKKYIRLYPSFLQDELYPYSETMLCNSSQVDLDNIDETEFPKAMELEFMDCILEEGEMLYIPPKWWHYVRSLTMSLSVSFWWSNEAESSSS
UniProt O80742: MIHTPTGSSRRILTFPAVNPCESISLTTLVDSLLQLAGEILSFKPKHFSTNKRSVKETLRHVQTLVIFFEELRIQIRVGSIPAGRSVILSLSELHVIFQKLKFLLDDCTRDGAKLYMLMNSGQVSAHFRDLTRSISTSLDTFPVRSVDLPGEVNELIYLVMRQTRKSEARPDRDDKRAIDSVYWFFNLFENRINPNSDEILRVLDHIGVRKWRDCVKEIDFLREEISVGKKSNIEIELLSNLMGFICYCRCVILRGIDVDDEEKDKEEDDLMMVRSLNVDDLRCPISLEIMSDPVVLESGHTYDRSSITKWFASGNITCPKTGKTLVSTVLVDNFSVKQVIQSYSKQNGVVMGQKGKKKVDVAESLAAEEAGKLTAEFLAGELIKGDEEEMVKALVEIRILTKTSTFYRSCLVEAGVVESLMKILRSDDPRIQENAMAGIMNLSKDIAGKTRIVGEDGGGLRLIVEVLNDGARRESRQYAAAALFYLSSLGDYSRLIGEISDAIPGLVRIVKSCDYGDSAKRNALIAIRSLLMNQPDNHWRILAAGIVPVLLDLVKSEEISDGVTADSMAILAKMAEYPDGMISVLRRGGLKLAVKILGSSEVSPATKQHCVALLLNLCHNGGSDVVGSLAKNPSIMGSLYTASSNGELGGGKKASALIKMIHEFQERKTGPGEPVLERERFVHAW

Experiment [1] has as its target JMJD5 fused to the N-terminal part of YFP (YFPn) (Arabidopsis) (UniProt Q8RWR1). As to the kind of experiment: split reporter.
In experiment [2] the target is T1, CK2 fused to the N-terminal part of YFP (YFPn) (Arabidopsis) (UniProt Q08466).
T1 sequence: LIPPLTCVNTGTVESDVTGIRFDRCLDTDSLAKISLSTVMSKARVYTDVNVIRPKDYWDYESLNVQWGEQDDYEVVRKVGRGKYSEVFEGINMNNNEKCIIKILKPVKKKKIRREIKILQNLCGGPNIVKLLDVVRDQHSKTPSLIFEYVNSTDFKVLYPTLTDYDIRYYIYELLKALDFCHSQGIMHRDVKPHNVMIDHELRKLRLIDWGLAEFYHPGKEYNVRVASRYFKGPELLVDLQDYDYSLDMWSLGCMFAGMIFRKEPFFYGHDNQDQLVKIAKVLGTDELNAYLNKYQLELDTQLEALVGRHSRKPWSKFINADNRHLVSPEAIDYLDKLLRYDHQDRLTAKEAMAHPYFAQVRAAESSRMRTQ
As to the kind of experiment: split reporter.

For experiment [3], the target named is T2, LHY fused to the N-terminal part of YFP (YFPn) (Arabidopsis) (UniProt Q6R0H1).
T2 sequence: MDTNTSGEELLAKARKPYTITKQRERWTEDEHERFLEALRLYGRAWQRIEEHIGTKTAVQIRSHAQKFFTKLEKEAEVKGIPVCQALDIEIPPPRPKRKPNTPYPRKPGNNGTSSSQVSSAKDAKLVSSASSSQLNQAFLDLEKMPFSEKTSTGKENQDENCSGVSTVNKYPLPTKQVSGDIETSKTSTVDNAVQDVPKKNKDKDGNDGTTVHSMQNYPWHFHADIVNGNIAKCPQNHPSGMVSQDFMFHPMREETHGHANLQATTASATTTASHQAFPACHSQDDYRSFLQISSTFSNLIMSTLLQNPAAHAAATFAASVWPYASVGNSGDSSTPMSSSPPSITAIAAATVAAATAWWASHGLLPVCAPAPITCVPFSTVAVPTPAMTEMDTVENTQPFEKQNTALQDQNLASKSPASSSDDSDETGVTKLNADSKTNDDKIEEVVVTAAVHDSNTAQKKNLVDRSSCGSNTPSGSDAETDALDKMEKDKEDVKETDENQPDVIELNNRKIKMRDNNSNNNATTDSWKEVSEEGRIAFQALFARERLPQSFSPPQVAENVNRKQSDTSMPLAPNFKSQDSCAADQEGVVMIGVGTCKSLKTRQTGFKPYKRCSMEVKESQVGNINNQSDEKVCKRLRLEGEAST
Description: split reporter.

Experiment [4] deals with T3, YFP-PUB18 (full-length PUB18 fused to YFP) (Arabidopsis) (UniProt Q9XIJ5).
T3 sequence: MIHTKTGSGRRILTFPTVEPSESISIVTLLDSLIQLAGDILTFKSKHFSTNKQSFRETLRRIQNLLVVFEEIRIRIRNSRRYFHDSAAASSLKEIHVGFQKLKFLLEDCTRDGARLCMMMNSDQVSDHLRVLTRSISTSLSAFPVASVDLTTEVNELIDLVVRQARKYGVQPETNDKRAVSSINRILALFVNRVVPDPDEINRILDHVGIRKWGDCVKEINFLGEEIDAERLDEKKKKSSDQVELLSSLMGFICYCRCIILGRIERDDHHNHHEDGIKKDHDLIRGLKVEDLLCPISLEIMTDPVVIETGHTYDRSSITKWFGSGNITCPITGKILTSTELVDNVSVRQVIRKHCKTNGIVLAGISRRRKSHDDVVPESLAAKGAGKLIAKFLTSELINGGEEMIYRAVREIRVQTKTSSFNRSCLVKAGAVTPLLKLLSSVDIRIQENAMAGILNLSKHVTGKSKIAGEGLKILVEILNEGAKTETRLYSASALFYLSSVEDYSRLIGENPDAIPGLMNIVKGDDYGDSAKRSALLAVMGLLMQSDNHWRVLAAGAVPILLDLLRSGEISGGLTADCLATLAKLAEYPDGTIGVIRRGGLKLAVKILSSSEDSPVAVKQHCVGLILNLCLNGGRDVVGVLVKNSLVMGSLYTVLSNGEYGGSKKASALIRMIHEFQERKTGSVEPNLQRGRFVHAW
Description: co-IP.

Experiment [5] addresses T4, FLAG-LHY (Arabidopsis) (UniProt Q6R0H1).
T4 sequence: T2 sequence
Description: co-IP.

Take “full-length PUB18 (PUB18FL) fused to the C-terminal part of YFP (YFPc) (from UniProt Q9XIJ5 1-697)”: the binding entry is reported as “binds” in experiment [1], “no binding” in experiment [2] and “binds” in experiment [3]. With FLAG-JMJD5 (from UniProt Q8RWR1 1-429), the binding entry in experiment [4] is “binds”. “full-length PUB19 fused to the C-terminal part of YFP (YFPc) (from UniProt O80742 1-686)”: the binding result in experiment [1] and in experiment [3] was “no binding” each time.

B1: YFP-PUB18 (full-length PUB18 fused to YFP) (protein, UniProt Q9XIJ5 1-697)
chain: T3 sequence
For B1, the binding result in experiment [5] is listed as “binds”.

The record behind these values is paper doi:10.1101/2025.08.31.673341.
